# Library screen at single concentrations

From ChEMBL document CHEMBL3988442, “University of Dundee, Small-Polar-MMV Screening Library” (2021).

Values are the deposited “Percent Effect”, in %.
How 0% and 100% were set is not recorded. Most values in the screen are low, and negative values occur.
The compounds are a random part of those screened.

A: 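Phenotypic screen: M. tuberculosis growth, glucose 7H9 medium, 3 days; the read-out is not stated. Concentration: 500 µM. The record gives no direction; compounds that gave an IC50 in retests scored well above the rest, so higher reads as more growth inhibition. Of about 18,000 compounds tested this way, about 1,400 (7.9%) reached 50% or more in at least one test.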
B: 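Growth of Mycobacterium tuberculosis over 4 days (cholesterol / DPPC medium with tyloxapol); the read-out is not stated. Compounds at 500 µM. The record gives no direction; compounds that gave an IC50 in retests scored well above the rest, so higher reads as more growth inhibition. Size under these conditions: about 18,000 compounds, about 900 of them at 50% or above in at least one test.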

SMILES,A,B
Cc1cc(C(F)F)nc2sc(C(N)=O)c(N)c12,-12.43,-20.38
COC(=O)C(C)Sc1nc2ncccn2n1 (stereo unspecified),-4.641,-7.659
Cc1cccc(NC(=O)CCc2ccco2)n1,-0.8037,-19.1
NCCOCc1cccc(Cl)c1,30.77,24.44
CC(C)OCCn1c(S(C)(=O)=O)nc2ccccc21,40.42,16.36
Cc1nnnn1-c1ccccc1C(=O)N1CCOCC1,4.077,-0.2516
O=C1NCC(C(=O)Nc2nc(C3CC3)cs2)N1 (stereo unspecified),22.33,8.445
NCc1cc(Oc2cccc(F)c2)ccn1,59.25,77.72
CN(CCC#N)C(=O)CN(C)c1ccc(Cl)cn1,5.637,2.827
CCC(C)NC(=O)c1cnn(-c2ccccc2)c1 (stereo unspecified),13.1,-15.23
CCN(CC)CCNC(=O)c1ccc(CN)cc1,-17.67,-18.48
COCCN(Cc1ccccc1)C(=O)c1cc(C)on1,40.72,44.36
CC(CNC(=O)Nc1cn[nH]c1)N(C)C (stereo unspecified),4.634,2.372
CCCNC(=O)CCNC(=O)Nc1cc(C)cc(C)n1,-9.004,-27.97
Cc1ccc(C(=O)NC2CCC(N)CC2)cc1F (stereo unspecified),48.79,21.07
CCC(NC(=O)CCc1cccc(O)c1)[C@H]1C[C@H](O)C1 (stereo partly specified),3.619,-4.233
CC(=O)NCCNC(=O)c1oc(Br)cc1C,14.57,1.64
COc1cc(CN)ccc1Cl,30.1,22.2
CNC(=O)c1cc(-c2ccccc2C)n[nH]1,66,18.45
CCS(=O)(=O)c1cccc(CN)c1,1.229,-5.294
Cn1ccc(C(=O)NCc2nccs2)cc1=O,-5.574,-12.94
CCN1C(=O)CN(C(=O)CC(C)C)CC12CCOCC2,-1.411,-9.862
CC(N)C(=O)N1CCN(C2CCCCC2)CC1 (stereo unspecified),-0.1319,-10.75
Nc1nc(CCNC(=O)CN2CCOC2=O)cs1,-2.774,-4.825
CCC(CC)(CO)NC(=O)NCCN1CCCCC1C (stereo unspecified),4.213,12.49
Cc1cc2cc(C(=O)N[C@@H]3CCOC[C@H]3O)ccc2o1,13.84,-7.925
C[C@@H]1CN(C(=O)c2ccns2)C[C@@]1(O)C1CC1,10.68,7.946
NC(=O)C1CCN(C(=O)CCc2ccc(Cl)cc2Cl)C1 (stereo unspecified),68.32,62.11
Cc1cccc(NC(=O)c2nccnc2CO)c1,21.67,-15.44
Cc1cc(C)c(C#N)c(N2C[C@H](C3CC3)[C@@H](N)C2)n1,79.47,60.85
CCOC(=O)[C@H]1NC(=O)C[C@H]1c1ccccc1,19.2,5.573
CCN(CCO)C[C@@H]1CN(C(=O)C2(C)CC2)C[C@@H]1CO,0.3106,-0.4108
O=C1CCCN1Cc1cccc(C(=O)N2CCC2)c1,-8.203,-8.011
CNCCn1cc(Br)cn1,14.31,15.47
NCc1ccc(-n2cccn2)cc1,11.29,11.35
OCC(O)CSCc1nc(-c2ccc(Cl)cc2)no1 (stereo unspecified),71.19,73.82
Cc1cccc(C)c1CN,-1.811,-5.484
Cc1ccc(S(N)(=O)=O)c2cccnc12,18.21,-14.36
Fc1ccccc1CN1CCn2ccnc2C1,-8.789,-18.21
O=S(=O)(Cc1ccc(F)c(Cl)c1)NC1CCCNC1 (stereo unspecified),38.04,31.91
COc1ncc(C(=O)N[C@@H]2COCC[C@H]2O)nc1OC,-6.003,-9.082
CNC(=O)CN1CCCC(CO)(CC=C(C)C)C1 (stereo unspecified),-0.7094,2.681
CCN(CC(N)=O)S(=O)(=O)c1ccc2ccccc2c1,47.96,17.35
CCOC(=O)CC1(N2CCOCC2)CCCC1,7.133,10.32
C[S+]([O-])c1nncn1Cc1cccc2cccnc12 (stereo unspecified),9.262,12.24
NCC(Cc1ccccc1Cl)C(N)=O (stereo unspecified),11.77,-12.82
CNC(=O)NC(=O)CNc1cc(F)cc(F)c1,-15.26,-23.63
Cc1ccc(F)c(C(=O)NCCc2n[nH]c(N)n2)c1Cl,11.1,4.651
CSCC[C@H](NC(C)=O)C(=O)NCCn1ccnc1C,3.415,-2.496
COCCSCc1cnn(-c2ccccc2)n1,43.15,29.38
CCSc1nnc(-c2ccc[nH]2)o1,53.82,55.99
O=C(c1cccnc1O)N1CCCN(C2CC2)CC1,10.29,7.737
CCc1cc2c(=O)n(CCN3CCNCC3)cnc2s1,35.55,10.79
NC(=O)NCc1ccc(N2CC=CC2)cc1,-2.54,8.09
Cc1nc(C(=O)NC(C)C(C)C)ccc1C#N (stereo unspecified),25.48,35.33
O=C(NCC(F)(F)CO)c1cccnc1OCC(F)F,20.76,6.986
CCCn1ncc(CN2CCN(S(N)(=O)=O)CC2)c1C,8.449,12.02
O=C1CC[C@@H](C(F)(F)F)N1,-8.592,-4.816
CCS(=O)(=O)N1CCCC1CN(C)CCOC (stereo unspecified),13.66,11.67
Nc1nc(NCCc2cc[nH]n2)cc([C@H]2C[C@@H](N)C2)n1,14.91,4.025
CN(Cc1cc(C(N)=O)cs1)Cc1nccn1C,1.268,1.21
CS(=O)(=O)CCN1CCC(C(N)=O)CC1,-18.98,-15.87
CN(C)CC(N)c1ccco1 (stereo unspecified),-2.18,-7.32
O=C1CC(C2CCCC2)CC(=O)N1,16.28,-2.393
CCc1nnc(CNC(=O)[C@@H](N)Cc2ccccc2)s1,15.41,4.18
CN(C1(C#N)CCC1)S(=O)(=O)c1cccs1,60.85,45.65
CCCNC(=O)C(C)NC(=O)c1ccoc1 (stereo unspecified),11.56,-8.208
OC1CCOc2c(Cl)cccc21 (stereo unspecified),22.49,17.82
CCCc1nc(CN2CCN(C(C)=O)CC2)cs1,45.83,14.41
CC(C)CC(N)C(=O)N(C)C (stereo unspecified),2.119,6.056
CCN(CC1CCNCC1)CC1CCCO1 (stereo unspecified),5.61,-4.467
Fc1cccnc1NCc1cc[nH]n1,15.15,4.762
Cc1ccc2[nH]c(CN3CCC(O)C3)cc(=O)c2c1 (stereo unspecified),10.33,6.139
CNC(C)c1ccccn1 (stereo unspecified),3.488,6.102
CCOc1cc(CN(C)CCN(C)C)ccc1O,-4.907,5.03
Cc1nc(N)ncc1C(=O)NC1CCC(=O)N(C)C1 (stereo unspecified),-5.737,0.06902
COC(=O)CNc1ccccc1N1CCC(O)CC1,16.38,-4.922
CC(N)C1=CCN(C)CC1 (stereo unspecified),5.535,-0.1977
NC(=O)C(SC1CCOCC1)c1ccccc1 (stereo unspecified),-5.819,1.85
CSC(C)(C)CNC(=O)N(C)CC1CCCO1 (stereo unspecified),7.603,-10.59
COc1cc(CN)ccc1O,6.359,19.58

Repeated from the top, 4 entries:

Cc1cc(C(F)F)nc2sc(C(N)=O)c(N)c12 gave A: -12.43%; B: -20.38%.
COC(=O)C(C)Sc1nc2ncccn2n1 (stereo unspecified) gave A: -4.641%; B: -7.659%.
Cc1cccc(NC(=O)CCc2ccco2)n1 gave A: -0.8037%; B: -19.1%.
NCCOCc1cccc(Cl)c1 gave A: 30.77%; B: 24.44%.